The list shows a part of the results.

In the test the target is T1, OsSMF1 (Oryza sativa, UniProt Q6ZLB0 1-436).
T1 sequence: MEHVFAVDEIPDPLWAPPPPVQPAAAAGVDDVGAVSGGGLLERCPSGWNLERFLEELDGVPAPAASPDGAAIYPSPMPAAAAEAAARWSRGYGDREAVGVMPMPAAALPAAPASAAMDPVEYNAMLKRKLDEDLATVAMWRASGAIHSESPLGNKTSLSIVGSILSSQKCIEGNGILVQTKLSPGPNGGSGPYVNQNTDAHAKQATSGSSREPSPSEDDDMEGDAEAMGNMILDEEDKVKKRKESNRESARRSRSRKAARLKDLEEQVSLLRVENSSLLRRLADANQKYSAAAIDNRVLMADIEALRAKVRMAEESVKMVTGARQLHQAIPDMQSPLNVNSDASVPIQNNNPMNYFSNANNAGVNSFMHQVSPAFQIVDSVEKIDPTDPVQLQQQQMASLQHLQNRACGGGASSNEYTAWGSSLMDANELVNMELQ
Put plainly: protein-binding microarray (RPBM); PBS, 2% BSA, 51.3 ng/ul salmon testes DNA, 50 uM zinc acetate, 200 nM TF, 25 C, 1 h; high values mean tight binding. Particulars: protein: recombinant; tags: N-terminal polyhistidine and DsRed monomer fusion (pET32a); chain copies: 2; label: CyDye5-dUTP incorporated in the synthesized complementary strand; 3' TTTTT single-stranded linker to array surface; dsDNA, one strand shown. A digest of the protocol:
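Polyhistidine-tagged DsRed fusions of transcription factors, joined at the N-terminus, were expressed in E. coli BL21-CodonPlus and isolated on Ni–NTA. They were incubated at 200 nM for 1 h at 25 °C on a custom Agilent array, double-stranded and BSA-blocked, in PBS with 2% BSA, salmon testes DNA and 50 µM zinc acetate. The binding signal is per-feature fluorescence intensity (arbitrary units) read on an Axon 4000B scanner after washing.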
As to “GATCTGCCACTATATTTTCTATTAATTTAGAATTTGATACCGGAGTCACCTAGTGCAG”, the binding signal was 4330 fluorescence intensity (a.u.).
With “TGCTCGCTACCTGACGTGATGCACAAAAGGCCCAGTTTGTCGGAGTCACCTAGTGCAG” the figure was 3880 fluorescence intensity (a.u.); with “CGTTGCTCGGGAACACGTTCCGCCACCGACGTCGCCGTCCCGGAGTCACCTAGTGCAG”, 3310 fluorescence intensity (a.u.).
With “CATCTAGACATCTAGTAGTATTGACGTGTAAGGAGCTGTACGGAGTCACCTAGTGCAG” the figure was 7550 fluorescence intensity (a.u.).
As for “GGCTTTGATGTTTGGTTTCTGATTCCTGAGCTGTACCGATCGGAGTCACCTAGTGCAG”, the binding signal is 4280 fluorescence intensity (a.u.).
With “TGGCTCCCTGTTCAGTCAAATCTCCTTCCAGATATGCACGCGGAGTCACCTAGTGCAG” the figure was 3200 fluorescence intensity (a.u.); with “ACAGATATCATATCAAAACACAGCAGAGATCGATAGATCTCGGAGTCACCTAGTGCAG”, 3230 fluorescence intensity (a.u.); with “GCGGGAAGAGTAGAGTGCCACATCATCAATTTTGGCGAAACGGAGTCACCTAGTGCAG”, 14400 fluorescence intensity (a.u.).
Under “TCCTCCTCCTCGTCGTGGTGCGACCCCGCGCCAAGCAATCCGGAGTCACCTAGTGCAG” stands 3190 fluorescence intensity (a.u.); under “GAAGAGGGGAGGGAGCTCCAAAAGGGCGAGAAAGTAAGCGCGGAGTCACCTAGTGCAG”, 39400 fluorescence intensity (a.u.).
As to “ATTTGGAACTACTCACGGCCAACCCAACAGTCACAGTTGGCGGAGTCACCTAGTGCAG”, the binding signal is 3350 fluorescence intensity (a.u.).
Under “GCTCCGAGCTCTCCATTCCCGCGACCCATTGACCCATCGGCGGAGTCACCTAGTGCAG” stands 7370 fluorescence intensity (a.u.); under “ATGATTTGCATACAGGCGACAACATTCATACTAATTGGAACGGAGTCACCTAGTGCAG”, 3480 fluorescence intensity (a.u.).
Under “GTGTTGGGCCGATAATTTCCTGCACGGAATTTCGTCCCGTCGGAGTCACCTAGTGCAG” stands 5510 fluorescence intensity (a.u.); under “CACCACACGTCACGCTTCCACCTCCACCTCCACCTCACTGCGGAGTCACCTAGTGCAG”, 18200 fluorescence intensity (a.u.); under “CTGATCTGCTGATGCGAATGCGAGCAGTAATCAACAGCGTCGGAGTCACCTAGTGCAG”, 3240 fluorescence intensity (a.u.).
With “AACATTGAGCCACGTCATCAACAAAATATGGACCGTCCGACGGAGTCACCTAGTGCAG” the figure was 21700 fluorescence intensity (a.u.).
“CACCGCAGCTTCTCCAATCCGTCACTTTCCCCATCCCTCCCGGAGTCACCTAGTGCAG”: the binding signal is 3240 fluorescence intensity (a.u.).
With “GCATTCCCACCTTCCGTCGTCATCTTCACCACCGGCGGTGCGGAGTCACCTAGTGCAG” the figure was 3340 fluorescence intensity (a.u.); with “CACAAACTCGCATAACCGCCCCGCCGCGTGTCGTCTCCCCCGGAGTCACCTAGTGCAG”, 5980 fluorescence intensity (a.u.); with “ACGCCCGATCTCTGCAATTCGATCGCTTGCATCTGCAAAGCGGAGTCACCTAGTGCAG”, 3920 fluorescence intensity (a.u.).
With “GAGGCAGTGAACCGGAATAGGCCACACTTGTCGCGATATTCGGAGTCACCTAGTGCAG”, the binding signal is 3250 fluorescence intensity (a.u.).
Under “CTTGCAAACGCAACCAACAACCCATTCCCATGCAATATATCGGAGTCACCTAGTGCAG” stands 21900 fluorescence intensity (a.u.); under “CGTGACGGCGTGCCATCTACTACCTGAGAAGAAACACATACGGAGTCACCTAGTGCAG”, 31800 fluorescence intensity (a.u.).
For “CAGGGCCTACGTGCATGGGTGACTCACGCAGCCTTTCTGTCGGAGTCACCTAGTGCAG”, the binding signal is 11500 fluorescence intensity (a.u.).
With “GGTCCCCTGCGCGTCGCCACGTTGCCAACCTCCTCCAGGGCGGAGTCACCTAGTGCAG” the figure was 10200 fluorescence intensity (a.u.); with “GTATTGTGGGTTAGGGATGTCGATTATACTCGACGTAAAGCGGAGTCACCTAGTGCAG”, 3830 fluorescence intensity (a.u.).
With “ATCGGGAGAGATGGAAAATAGAGTAGTCCCTGACACGTGGCGGAGTCACCTAGTGCAG” the figure was 24300 fluorescence intensity (a.u.).
Under “GTCCAGATACTAAGGTGTATGGTATTATCGGAAAACCTGTCGGAGTCACCTAGTGCAG” stands 5550 fluorescence intensity (a.u.); under “GCTCGTAGTCTACTCCACCCCGCTTGTCGACGTGCGCTGGCGGAGTCACCTAGTGCAG”, 3790 fluorescence intensity (a.u.); under “ACATACGAGAGATCCCATATGCTGTTTATTGCTGCTGCCACGGAGTCACCTAGTGCAG”, 3430 fluorescence intensity (a.u.).
Consider “ATGTTTATATCGTCTCAACTGACTAGGGAATTTGGAGATGCGGAGTCACCTAGTGCAG”, for which the binding signal was 3750 fluorescence intensity (a.u.).
For “TCTGCCAGGTGGTGGCCTCAATGATGGCGAGCCATGGCCACGGAGTCACCTAGTGCAG”, the binding signal is 3720 fluorescence intensity (a.u.).
Under “CAAATCCACCCCTGGGCTCCGGCTGGATGACGTGCCAAGCCGGAGTCACCTAGTGCAG” stands 10500 fluorescence intensity (a.u.); under “TTACCAGAGTTACTCCGTTTTGCTTGTACAGTTTCCGGTTCGGAGTCACCTAGTGCAG”, 3260 fluorescence intensity (a.u.).
In the case of “GTTTAATCGTGGTCTTGTCTACGTGGCACGCAACATGGACCGGAGTCACCTAGTGCAG”, the binding signal was 25000 fluorescence intensity (a.u.).
With “CGTGATCAATTCGCCTCATGCTGGCGTGACGCGGACCGAGCGGAGTCACCTAGTGCAG” the figure was 6720 fluorescence intensity (a.u.); with “CTTTCTTTTCCTTTCCTTCTCTTCTCTTTATCTCAGCGATCGGAGTCACCTAGTGCAG”, 15100 fluorescence intensity (a.u.); with “TCGCCGCAGTCGGGCACCGCCGCCCCGTCATCGCCGCGGCCGGAGTCACCTAGTGCAG”, 7140 fluorescence intensity (a.u.).
Under “TAAGCTAGGAGAGATTGTGCGAATCATCTAGCTCAAAATTCGGAGTCACCTAGTGCAG” stands 3910 fluorescence intensity (a.u.); under “AGCTTGTTTATAGGAGTGAGTGTGCACGTATGTGTAGGCGCGGAGTCACCTAGTGCAG”, 4180 fluorescence intensity (a.u.).
“CCAACGTTTCAATCGCTTGTTCGATCAGATTAACGGCGTTCGGAGTCACCTAGTGCAG”: the binding signal was 38500 fluorescence intensity (a.u.).

For the origin of these results see paper PMC7819943, “Rice protein-binding microarrays: a tool to detect cis-acting elements near promoter regions in rice”.
